Data taken from PubChem BioAssay AID504749, deposited by NCATS (2011).

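Malaria parasite (P. falciparum) lines kept in red blood cells; parasite DNA is measured by SYBR Green fluorescence after lysis, 72 h after compound addition.
Each compound was titrated across a series from about 0.000037 to 29 µM.
The number is the fitted AC50, the concentration giving a half-maximal change in signal; a lower value means higher potency, whether the curve shows a decrease or an increase.
Calls follow the curve class and fit quality: every row here is inconclusive, covering signal-raising curves and weak, poorly fitted, partial or highest-dose-only inhibition curves.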

Values are in µM.
Every entry below has the call inconclusive.
Only part of the assay is shown, chiefly results filed as inconclusive.
A potency from a partial, single-point or poor curve is only a rough figure.
Some entries filed as inconclusive have a full curve.
The first word of each remark tells which way the curve ran; it can be opposite to the aim of the assay.

Compound,tested on / at,Potency (µM),curve
CN1CCC[C@@H]1c1cccnc1,parasite line B,10,"inhibitor, single point"
CN1CCC[C@@H]1c1cccnc1,CP262,13.46,"activator, single point"
CC(Cc1cccc(C(F)(F)F)c1)NCCOC(=O)c1ccccc1 (stereo not given),CP237,10,"inhibitor, single point"
O=c1c(-c2ccc(O)cc2)coc2cc(O)cc(O)c12,PC26,19.01,"inhibitor, single point"
O=c1c(-c2ccc(O)cc2)coc2cc(O)cc(O)c12,W2,0.7569,"inhibitor, full curve"
CC1=C(CC(=O)O)c2cc(F)ccc2/C1=C\c1ccc(S(C)=O)cc1 (stereo not given),7G8,12.59,"inhibitor, partial curve"
CC1=C(CC(=O)O)c2cc(F)ccc2/C1=C\c1ccc(S(C)=O)cc1 (stereo not given),ICS,11.22,"inhibitor, single point"
CC1=C(CC(=O)O)c2cc(F)ccc2/C1=C\c1ccc(S(C)=O)cc1 (stereo not given),CP266,21.33,"inhibitor, partial curve, poor fit"
CC1=C(CC(=O)O)c2cc(F)ccc2/C1=C\c1ccc(S(C)=O)cc1 (stereo not given),W2,1.694,"inhibitor, partial curve, poor fit"
CC[C@H](C)[C@H]1O[C@]2(CC[C@@H]1C)C[C@@H]1C[C@@H](C/C=C(\C)[C@H](O[C@@H]3C[C@H](OC)[C@H](O[C@@H]4C[C@H](OC)[C@@H](O)[C@H](C)O4)[C@H](C)O3)[C@@H](C)/C=C/C=C3\CO[C@@H]4[C@H](O)C(C)=C[C@@H](C(=O)O1)[C@]34O)O2,DIV30,1.346,"inhibitor, full curve"
CC[C@H](C)[C@H]1O[C@]2(CC[C@@H]1C)C[C@@H]1C[C@@H](C/C=C(\C)[C@H](O[C@@H]3C[C@H](OC)[C@H](O[C@@H]4C[C@H](OC)[C@@H](O)[C@H](C)O4)[C@H](C)O3)[C@@H](C)/C=C/C=C3\CO[C@@H]4[C@H](O)C(C)=C[C@@H](C(=O)O1)[C@]34O)O2,CP315,1.51,"inhibitor, partial curve, poor fit"
CC[C@H](C)[C@H]1O[C@]2(CC[C@@H]1C)C[C@@H]1C[C@@H](C/C=C(\C)[C@H](O[C@@H]3C[C@H](OC)[C@H](O[C@@H]4C[C@H](OC)[C@@H](O)[C@H](C)O4)[C@H](C)O3)[C@@H](C)/C=C/C=C3\CO[C@@H]4[C@H](O)C(C)=C[C@@H](C(=O)O1)[C@]34O)O2,CP266,1.346,"inhibitor, full curve, poor fit"
CC[C@H](C)[C@H]1O[C@]2(CC[C@@H]1C)C[C@@H]1C[C@@H](C/C=C(\C)[C@H](O[C@@H]3C[C@H](OC)[C@H](O[C@@H]4C[C@H](OC)[C@@H](O)[C@H](C)O4)[C@H](C)O3)[C@@H](C)/C=C/C=C3\CO[C@@H]4[C@H](O)C(C)=C[C@@H](C(=O)O1)[C@]34O)O2,PC49,31.62,"inhibitor, partial curve, poor fit"
CN1C(=O)CN=C(c2ccccc2)c2cc([N+](=O)[O-])ccc21,CP335,1.901,"inhibitor, partial curve, poor fit"
CN1C(=O)CN=C(c2ccccc2)c2cc([N+](=O)[O-])ccc21,CP215,13.46,"inhibitor, single point"
CN1C(=O)CN=C(c2ccccc2)c2cc([N+](=O)[O-])ccc21,HB3,17.78,"inhibitor, single point"
CN1C(=O)CN=C(c2ccccc2)c2cc([N+](=O)[O-])ccc21,CP325,0.0213,activator
CCC(C(=O)C(C)C(O)C(C)CCc1ccc(C)c(O)c1C(=O)O)C1OC(CC)(C2CC[C@@](O)(CC)C(C)O2)CC1C (stereo not given in full),CP192,1.2,"inhibitor, partial curve, poor fit"
C#CCOC(C(=O)OCCN(C)C)(c1ccccc1)c1ccccc1,ECU,11.22,"inhibitor, single point"
C#CCOC(C(=O)OCCN(C)C)(c1ccccc1)c1ccccc1,Dd2,12.59,"inhibitor, single point"
C#CCOC(C(=O)OCCN(C)C)(c1ccccc1)c1ccccc1,ICS,17.78,"inhibitor, single point"
C#CCOC(C(=O)OCCN(C)C)(c1ccccc1)c1ccccc1,CP335,19.01,"inhibitor, partial curve, poor fit"
C#CCOC(C(=O)OCCN(C)C)(c1ccccc1)c1ccccc1,DIV17,12,"inhibitor, single point"
C#CCOC(C(=O)OCCN(C)C)(c1ccccc1)c1ccccc1,P93_24,17.78,"inhibitor, single point"
C#CCN(C)Cc1ccccc1,CP215,8.087,"inhibitor, single point"
C#CCN(C)Cc1ccccc1,CP297,1.142,"inhibitor, single point"
C#CCN(C)Cc1ccccc1,CP266,0.0064,"inhibitor, full curve, poor fit"
NCc1ccc(S(N)(=O)=O)cc1,DIV14,8.087,"inhibitor, single point"
NCc1ccc(S(N)(=O)=O)cc1,ATS189,5.623,"inhibitor, single point"
NCc1ccc(S(N)(=O)=O)cc1,CP335,9.074,"inhibitor, partial curve, poor fit"
NCc1ccc(S(N)(=O)=O)cc1,CP265,7.08,"inhibitor, single point"
Clc1ccc(C(Cn2ccnc2)OCc2ccsc2Cl)c(Cl)c1 (stereo not given),CP201,15.1,"inhibitor, single point"

3 of the entries, repeated:

{"compound": "C#CCN(C)Cc1ccccc1", "tested on / at": "CP215", "Potency (µM)": "8.087", "curve": "inhibitor, single point"}
{"compound": "NCc1ccc(S(N)(=O)=O)cc1", "tested on / at": "DIV14", "Potency (µM)": "8.087", "curve": "inhibitor, single point"}
{"compound": "CN1CCC[C@@H]1c1cccnc1", "tested on / at": "parasite line B", "Potency (µM)": "10", "curve": "inhibitor, single point"}